1 molecule from paper PMC11445020 can be followed below.

The chains behind the UniProt entries cited, without tags or fusion partners.
UniProt P63159: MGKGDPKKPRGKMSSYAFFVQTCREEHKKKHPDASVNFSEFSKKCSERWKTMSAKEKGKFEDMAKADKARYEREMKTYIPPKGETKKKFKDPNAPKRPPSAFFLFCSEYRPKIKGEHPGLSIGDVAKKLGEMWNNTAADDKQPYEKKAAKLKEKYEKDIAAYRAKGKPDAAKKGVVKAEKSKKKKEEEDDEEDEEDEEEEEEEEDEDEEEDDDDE

No constants are given. Whether binding was seen depends on the method and setting. In cells and extracts the contact can be indirect. Some entries that bind do so weakly or less than the wild type. Sequences can lack the tags named with a protein.

In the experiment the target is High mobility group box 1 (Hmgb1-3flag) (UniProt P63159). Nature of the experiment: co-IP; Flag antibody on protein A/G IP beads added to RIPA lysate (with protease inhibitor cocktail) of cells co-transfected with HA-Aqp1 and Hmgb1-3flag plasmids; 4°C overnight; precipitate analysed by Western blot. A general note: In western blotting, separated proteins are transferred to a membrane and probed.

B1: Aquaporin 1 (HA-Aqp1) (protein, UniProt P29975 1-269)
chain: MASEIKKKLFWRAVVAEFLAMTLFVFISIGSALGFNYPLERNQTLVQDNVKVSLAFGLSIATLAQSVGHISGAHLNPAVTLGLLLSCQISILRAVMYIIAQCVGAIVASAILSGITSSLLENSLGRNDLARGVNSGQGLGIEIIGTLQLVLCVLATTDRRRRDLGGSAPLAIGLSVALGHLLAIDYTGCGINPARSFGSAVLTRNFSNHWIFWVGPFIGSALAVLIYDFILAPRSSDFTDRMKVWTSGQVEEYDLDADDINSRVEMKPK
Consider B1, for which the binding entry is “binds”.
